Measurements from paper PMC11321683.

By UniProt entry, the sequences of proteins in these tests, tags left out.
UniProt D9ZJE9, entry or part of it: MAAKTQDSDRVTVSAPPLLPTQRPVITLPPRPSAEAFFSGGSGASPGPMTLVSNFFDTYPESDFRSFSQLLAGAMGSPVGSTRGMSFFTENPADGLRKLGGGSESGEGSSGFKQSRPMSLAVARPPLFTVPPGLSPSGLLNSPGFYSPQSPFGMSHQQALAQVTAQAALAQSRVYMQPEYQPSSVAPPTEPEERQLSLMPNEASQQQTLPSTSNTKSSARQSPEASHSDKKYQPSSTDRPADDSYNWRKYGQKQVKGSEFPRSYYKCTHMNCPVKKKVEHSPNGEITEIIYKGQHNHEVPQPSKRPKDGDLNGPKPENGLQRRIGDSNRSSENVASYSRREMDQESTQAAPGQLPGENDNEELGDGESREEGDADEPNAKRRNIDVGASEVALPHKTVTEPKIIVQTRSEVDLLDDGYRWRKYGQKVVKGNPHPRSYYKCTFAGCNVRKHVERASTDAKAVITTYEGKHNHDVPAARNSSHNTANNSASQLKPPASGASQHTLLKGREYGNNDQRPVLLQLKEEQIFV

The sequences below were run against MdWRKY10 (Malus domestica) (UniProt D9ZJE9) (assay: EMSA). Conditions: EMSA with LightShift chemiluminescent kit (Thermo) per manufacturer; pH and temperature not stated; recombinant protein; protein details: His (pET-32a(+) vector); label: 3' biotin.

Binding result, no binding:
GCGTGTCAATCTGCATAACGTGTCAAAATGGGTTACCTGCGTGTCA (double strand) [proMdUFGT W4]
ACCACATTTTTACACTAAAACCAACGTCCTGGTACTATTCACTTTA / TAAAGTGAATAGTACCAGGATTTCCTTTTTAGTGTAAAAATGTGGT [proR-InD (mP)]
TTAATATTAAGAATGCACGTTTGACAAAAAAAATATTAAAATGCAC (double strand) [proMdF3'5'H W1]
ATATAAGATGTTAATATAACTTGACCGTGACTATTCAAATAGGAGG (double strand) [proMdMYB10 W1]

Negatives hold for the conditions tested. At least one verdict rests on a figure or table, not on a statement of the authors. The exact form of at least one protein or probe is not confirmed.
